Results are given in words; binding and its absence hold for the method and conditions named. Binding calls can cover weak binding; strength is not graded here.

This experiment concerns the target OgpA H205A/E206A, catalytically inactive variant (Akkermansia muciniphila). As to the kind of experiment: crystal structure; co-crystallization of OgpA H205A/E206A at 10 mg/ml in 20 mM Tris-HCl pH 7.6 with 2.5 mM GD; 100 mM MIB pH 5.0, 25% PEG 1,500; space group I 4, 2.16 Å; both purified.

As to GKPRPYSPRPTSHPRPIRV (Gal-GalNAc O-linked on T11) [glycodrosocin O-glycopeptide …(Gal-GalNAc)SHPRPIRV], the binding result is listed as “binds”.

Values taken from paper PMC7518263.
